Data source: PubChem BioAssay AID686938 (Drosophila RNAi Screening Center, 2013)
Screen: 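Looking for CRAC channel components and the factors controlling them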 (primary screen). Cells: Drosophila S2R+ cells. Reagents: long dsRNA against Drosophila genes, about 0.25 µg dsRNA per well, roughly 10,000 cells. Time to read-out: 5 days of knock-down before the calcium assay. Challenge: thapsigargin (SERCA pump blocker) to empty calcium stores; entry signal taken 4 min after adding it. Read-out: 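Per-well fluo-4 fluorescence in two replicates, unnormalised, measured in resting cells and 4 min after store depletion by the SERCA blocker thapsigargin; ratio of the two present in few wells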. Reading the numbers: calcium entry signal: higher = stronger calcium signal after store depletion; entry to resting ratio: higher = more calcium entry relative to resting level; resting calcium signal: higher = higher resting calcium signal. Rule for the call: 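Called when the plate z-score of the entry-to-rest ratio, mean of duplicates, falls below −3; wells with low overall dye signal (Fmax z below −2) or more than five off-targets excluded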. Meaning of the calls: active = strongly reduced calcium entry; inactive = no strong reduction.
In all, the deposit lists about 23,000 reagents; below is an unselected part of those with a known target gene and a result. Over the whole deposit, 75 (0.33%) are marked active. 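Raw plate signals without normalisation; calls rest on plate z-scores that were not deposited; ratio present for only 364 wells.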 Names joined by + are all predicted targets of the reagent. The record does not give: the dose of the treatment.

gene	dsRNA	calcium entry signal, replicate 1 (fluorescence units)	calcium entry signal, replicate 2 (fluorescence units)	entry to resting ratio	resting calcium signal, replicate 1 (fluorescence units)	resting calcium signal, replicate 2 (fluorescence units)	Call
CG9717	DRSC16543	4.69e7	4.45e7		2.33e7	1.87e7	inactive
CG12883	DRSC14570	2.34e7	4.04e7		1.32e7	1.79e7	inactive
Roc1a (Regulator of cullins 1a)	DRSC18483	3.31e7	2.42e7	1.7	1.93e7	1.55e7	active
RhoGAP68F (Rho GTPase activating protein at 68F)	DRSC10717	5.36e7	4.19e7		3.56e7	1.70e7	inactive
Oat (Ornithine aminotransferase precursor)	DRSC11043	2.06e7	3.18e7		1.01e7	2.32e7	inactive
CG13003	DRSC19522	3.30e7	3.50e7		1.65e7	1.46e7	inactive
Snap29 (Synaptosomal-associated protein 29kDa)	DRSC04721	5.07e7	5.22e7		2.38e7	2.29e7	inactive
Gr43a (Gustatory receptor 43a)	DRSC06658	3.34e7	2.94e7		1.65e7	1.48e7	inactive
SmD1 (Small ribonucleoprotein particle protein SmD1)	DRSC09800	9.88e6	1.28e7		7.23e6	7.96e6	inactive
CG15745 (retired record)	DRSC19711	4.31e7	6.38e7		2.07e7	2.83e7	inactive
hoe1 (hoepel1)	DRSC00265	3.86e7			1.98e7		inactive
hoe1 (hoepel1)	DRSC00333	3.33e7	3.30e7		1.57e7	1.58e7	inactive
hoe1 (hoepel1)	DRSC00353	3.39e7	4.14e7		1.73e7	1.95e7	inactive
CG11695	DRSC19416	2.94e7	3.88e7		1.53e7	1.76e7	inactive
CG8635	DRSC07226	4.21e7	3.66e7		1.84e7	1.83e7	inactive
CG5078	DRSC11762	2.63e7	4.28e7		1.41e7	1.89e7	inactive
Nubpl (NUBP iron-sulfur cluster assembly factor, mitochondrial)	DRSC03725	4.15e7			2.11e7		inactive
Adgf-A2 (Adenosine deaminase-related growth factor A2)	DRSC09507	4.16e7	3.35e7		1.90e7	1.72e7	inactive
Tsp42Ee (Tetraspanin 42Ee)	DRSC05947	5.55e7	4.19e7		2.33e7	1.72e7	inactive
CG32971	DRSC01372	1.86e7	3.41e7		1.09e7	1.54e7	inactive
Alg12 (Alg12 alpha-1,6-mannosyltransferase)	DRSC16416	3.45e7	3.59e7		1.73e7	1.98e7	inactive
Ipk1 (Inositol phosphate kinase 1)	DRSC04235	3.51e7			1.68e7		inactive
Ipk1 (Inositol phosphate kinase 1)	DRSC04236	4.41e7	5.21e7		2.12e7	2.32e7	inactive
Ipk1 (Inositol phosphate kinase 1)	DRSC04237	4.08e7	4.88e7		1.98e7	2.22e7	inactive
ptc (patched)	DRSC05117	1.62e7	3.05e7		9.39e6	1.35e7	inactive
ptc (patched)	DRSC07669	4.87e7	4.40e7		2.35e7	2.15e7	inactive
CSN8 (COP9 signalosome subunit 8)	DRSC02257	4.39e7			2.51e7		inactive
CG18747	DRSC15384	3.96e7	2.90e7		1.97e7	1.57e7	inactive
Lasp	DRSC10379	4.38e7	6.82e7		2.30e7	2.67e7	inactive
muc (midline uncoordinated)	DRSC02832	4.03e7	3.72e7		1.98e7	1.83e7	inactive
muc (midline uncoordinated)	DRSC21940	4.28e7	6.44e7		2.04e7	3.23e7	inactive
Tdg (Thymine DNA glycosylase)	DRSC17119	6.51e7	3.98e7		2.83e7	1.70e7	inactive
Tdg (Thymine DNA glycosylase)	DRSC17169	4.13e7	5.48e7	2	2.11e7	2.11e7	inactive
CG17681	DRSC02632	4.91e7	3.63e7		2.10e7	1.72e7	inactive
CG31835 + CG42585	DRSC01412	4.40e7	3.25e7		2.19e7	1.56e7	inactive
tamo	DRSC04446	4.19e7			2.27e7		inactive
5-HT2B (5-hydroxytryptamine (serotonin) receptor 2B)	DRSC16360	3.64e7	3.05e7		1.87e7	1.56e7	inactive
5-HT2B (5-hydroxytryptamine (serotonin) receptor 2B)	DRSC16362	4.43e7	3.26e7		1.99e7	1.57e7	inactive
CG4053	DRSC15538	3.83e7	3.52e7		1.86e7	1.73e7	inactive
CG13578	DRSC04214	4.01e7	4.16e7		2.01e7	1.71e7	inactive
Cad74A (Cadherin 74A)	DRSC10636	3.77e7	4.34e7		1.85e7	1.85e7	inactive
CenG1A (Centaurin gamma 1A)	DRSC02538	4.39e7	2.89e7		1.84e7	1.41e7	inactive
CenG1A (Centaurin gamma 1A)	DRSC03505	4.36e7	3.10e7		1.92e7	1.39e7	inactive
CenG1A (Centaurin gamma 1A)	DRSC03506	4.45e7	2.90e7		1.99e7	1.48e7	inactive
alpha-Man-Ib (alpha-Mannosidase class I b)	DRSC14418	1.22e7	2.55e7		9.38e6	1.16e7	inactive
CG32413	DRSC21591	3.14e7	3.19e7		1.59e7	1.44e7	inactive
SLIRP1 + anox	DRSC20542	3.17e7	2.98e7		1.45e7	1.48e7	inactive
Peritrophin-A (Peritrophin A)	DRSC20570	2.95e7	3.48e7		1.38e7	1.56e7	inactive
Lint-O (L(3)mbt interactor in ovarian somatic cells)	DRSC18468	3.76e7	5.49e7	2.1	1.79e7	1.90e7	inactive
CG8517	DRSC07205	4.82e7	4.83e7		1.93e7	2.06e7	inactive
dpr1 (defective proboscis extension response 1)	DRSC05906	2.62e7	2.69e7		1.18e7	1.16e7	inactive
dpr1 (defective proboscis extension response 1)	DRSC06399	2.71e7	3.06e7		1.32e7	1.35e7	inactive
cue (cueball)	DRSC08248	3.05e7	2.84e7		1.30e7	1.24e7	inactive
HP1D3csd (Heterochromatin Protein 1D3 chromoshadow domain)	DRSC19548	5.55e7	4.49e7		2.39e7	1.99e7	inactive
arx (asterix)	DRSC10386	3.15e7	4.35e7		1.52e7	2.95e7	inactive
goe (gone early)	DRSC19345	3.57e7	2.81e7		1.83e7	1.40e7	inactive
CG31278	DRSC16051	4.45e7	3.24e7		2.26e7	1.82e7	inactive
CG8159	DRSC16392	4.82e7	3.30e7		2.29e7	1.52e7	inactive
